Some of the results follow. These are further read-outs of the screen, such as a control signal, another cell line or another target. No call is given for them. The list favours compounds with an active or inconclusive main result. Words in brackets tell the shape of the fitted curve; partial curves, single points and poor fits give uncertain potencies.
Assay: Cell signaling CRE-BLA (Fsk stim)
Details: CHO CRE-bla reporter (cAMP response element driving beta-lactamase), forskolin EC10, beta-lactamase ratio; measured here: 460 nm blue channel
In short: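 CHO CRE-bla cells, overnight plating in Opti-MEM with 0.5% dialyzed FBS; cpd titration + EC10 NKH 477, 3 h 37 °C; CCF4 2 h RT; ex 405/em 460 vs 530 ratio → %Activity, AC50.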

Row | SMILES | AC50
1 | CN1CCN(C(=O)c2cc(-c3ccccc3)on2)CC1 | 0.0501 µM [falling, full curve]
2 | c1ccc(-c2cnnc(SCc3cn4cccnc4n3)n2)cc1 | 10 µM [rising, partial curve]
3 | CCc1cc2c(N3CCN(c4nnc(CC)s4)CC3)ncnc2s1 | 12.6 µM [falling, partial curve]
4 | Cc1cc(C)n(-c2ccc(C(=O)OCn3nnc4ccccc4c3=O)cc2)n1 | 12.6 µM [rising, single point]
5 | O=C(O)CCC(=O)N1CCc2cc(S(=O)(=O)NC3CCCC3)ccc21 | 0.398 µM [falling, full curve]
6 | CCN(CC)CCCn1c(=S)[nH]c2ccc(Cl)cc2c1=O | 10 µM [rising, single point]
7 | COc1cccc(CC(=O)NCC2COc3ccccc3O2)c1OC (centres undefined) | 7.94 µM [rising, partial curve]
8 | Cc1ccc(S(=O)(=O)NC(CN2CCOCC2)=NCCNS(=O)(=O)c2ccccc2)cc1 | 0.1 µM [falling, partial curve]
9 | CC(=O)Nc1nc2n(n1)C(c1ccc(Cl)cc1)C=C(C)N2 (centres undefined) | 25.1 µM [rising, single point]
10 | O=c1c2oc3ccccc3c2ncn1Cc1ccccc1F | 10 µM [rising, single point]
11 | Cc1nc2c([nH]1)c(=O)n(C)c(=O)n2Cc1ccco1 | 20 µM [rising, single point]
12 | COc1ccc(-c2cc3nc(C)cc(NCCO)n3n2)cc1 | 12.6 µM [rising, partial curve]
13 | CC(=O)OCC1OC(n2ccc(=O)[nH]c2=O)C(O)C1O (centres undefined) | 0.00794 µM [falling, full curve]
14 | COc1cccc(C(=O)Nc2cccc(-c3nnc(-c4ccccc4)o3)c2)c1 | 31.6 µM [falling, single point]
15 | Cc1nc(SCC(=O)N2CCCc3ccccc32)c2oc3ccccc3c2n1 | 1.26 µM [rising, partial curve]
16 | CC1(C)Cc2c(C#N)c(N3CCCC3)nc(-c3ccco3)c2CO1 | 10 µM [rising, partial curve]
17 | CNc1cc(OC)c(C(=O)N[C@@H]2CCN(Cc3ccccc3)[C@H]2C)cc1Cl | 12.6 µM [rising, single point]
18 | O=C(NCc1nc2ccccc2[nH]1)c1ccc(Cl)c(S(=O)(=O)N2CCCC2)c1 | 0.126 µM [falling, full curve, poor fit]
19 | CCOC(=O)CSc1nc2c(c(=O)n1-c1ccc(OC)cc1)SCC2 | 12.6 µM [rising, partial curve]

Individual results from the results shown.
Entry of c1ccc(-c2cnnc(SCc3cn4cccnc4n3)n2)cc1 under AC50: 10 µM [rising, partial curve]
Entry of COc1ccc(-c2cc3nc(C)cc(NCCO)n3n2)cc1 under AC50: 12.6 µM [rising, partial curve]

Source: PubChem BioAssay AID662 (National Center for Advancing Translational Sciences (NCATS), 2007)
